The experiment has as its target T1, GST-agnoprotein (BK polyomavirus (BKPyV)) (UniProt P03085).
T1 sequence: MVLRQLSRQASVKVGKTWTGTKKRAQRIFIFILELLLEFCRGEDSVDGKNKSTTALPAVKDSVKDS
Description: pull-down; GST pull-down with purified GST-agnoprotein incubated with PCNA mutants; immunoblot with anti-agnoprotein and anti-PCNA; both purified. On the technique in general: Immunoblotting shows a protein as a band on a membrane.

Protein sequences, listed by entry. Tags and fused reporters are not part of them. Lines headed by an entry give the natural chain unless they say otherwise; changes in a name come on top.
UniProt P12004: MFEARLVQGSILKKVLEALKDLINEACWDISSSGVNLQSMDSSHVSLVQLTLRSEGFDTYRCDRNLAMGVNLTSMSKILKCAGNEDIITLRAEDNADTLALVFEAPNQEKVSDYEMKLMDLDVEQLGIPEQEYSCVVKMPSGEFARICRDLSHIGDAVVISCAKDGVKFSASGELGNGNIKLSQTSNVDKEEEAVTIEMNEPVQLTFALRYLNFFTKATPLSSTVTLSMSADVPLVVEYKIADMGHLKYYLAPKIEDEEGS

These are yes or no findings as the source states them, for the method shown. Binding can be weak; no strength is given. Sequences can lack the tags named with a protein.

In the case of “PCNA mutant SHV43AAA (from UniProt P12004)”, the binding result is “binds”.

For “PCNA mutant QLGI125 (to Ala) (from UniProt P12004)”, the binding entry is listed as “binds”. The entry for “PCNA mutant VDK188 (to Ala) (from UniProt P12004)” is “binds”.

The record behind these values is publication PMC4318453.
